From publication PMC10318529

Amino acid sequences for entries named in this document (tags omitted). A change or cut given only in a name is not applied to a line headed by its entry.
UniProt P12643: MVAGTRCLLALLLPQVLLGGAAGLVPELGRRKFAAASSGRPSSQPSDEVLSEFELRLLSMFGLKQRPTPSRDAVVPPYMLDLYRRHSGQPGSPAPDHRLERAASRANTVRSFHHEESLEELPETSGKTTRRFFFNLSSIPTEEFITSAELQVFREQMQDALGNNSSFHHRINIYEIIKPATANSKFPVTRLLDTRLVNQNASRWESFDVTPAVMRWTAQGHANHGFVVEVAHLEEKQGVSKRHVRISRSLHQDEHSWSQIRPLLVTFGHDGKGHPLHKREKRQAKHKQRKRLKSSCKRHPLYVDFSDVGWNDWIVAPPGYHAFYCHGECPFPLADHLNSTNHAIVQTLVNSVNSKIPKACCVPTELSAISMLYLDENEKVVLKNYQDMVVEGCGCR

Molecular target: T1, Matrix Gla protein (human (endogenous in bone marrow MSCs)) (UniProt P08493)
T1 sequence: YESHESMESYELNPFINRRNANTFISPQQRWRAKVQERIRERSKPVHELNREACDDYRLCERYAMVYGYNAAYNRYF
Assay: co-IP; MSCs lysates in IP lysis buffer with 1% PMSF and phosphatase inhibitor; incubated overnight at 4 °C with antibodies against APPL1, MGP, BMP2 or IgG controls; Dynabeads Protein G, 3 h at 4 °C; Western blot

In the case of BMP2 (from UniProt P12643), the binding was “binds”.

No constants are given. Whether binding was seen depends on the method and setting. Binding seen in cells or lysates may run through a third protein. Binding calls can cover weak binding; strength is not graded here.
